From PubChem BioAssay AID330 (DTP/NCI, 2004)
The list does not hold the whole screen: it gathers tests that were run many times, whatever their T/C, doses with no T/C, and many T/C values between a quarter and a half above the control. Other doses and runs of a compound stand elsewhere. T/C gives the treated animals as a percentage of the vehicle group. Some doses have a count of surviving animals in place of a T/C: the source files T/C as zero there, which appears to mark a toxic dose or a test without result, not a measured value. Some survivor counts are full or nearly so, which does not show that the dose was tolerated: survival well below the control is almost never listed, so the zero probably covers shortened survival too. Counts of survivors are from the toxicity check (mostly the fifth day) where no day follows; animals may have died later. Schedules are NCI's codes, read here as Q, the interval in days (D) or hours (H), X, the number of doses. Some structures stand for samples that the source files as different forms (salt, stereo form or complex); doses refer to the form tested. Some entries hold several experiments; the results are listed from low to high. Where survival is the endpoint, this PubChem deposit counts one and a half times the control or more as active, and values a quarter to a half above the control carry no call in these data; other NCI protocols may use other cut-offs. Some T/C values carry the count of animals alive at the toxicity check (mostly the fifth day); where none is given, no animal had died by that day.

Test system: P388 leukemia ip, CD2F1 mice, survival T/C
Experiment: NCI In Vivo Anticancer Drug Screen. Data for tumor model P388 Leukemia (intraperitoneal) in CD2F1 (CDF1) mice
Conditions: T/C endpoint: median survival time, higher T/C = longer survival

How did the T/C (dose: 5.0 mg/kg/injection, schedule: Q01DX009 (ip), vehicle: alkali diluted with saline) turn out when NC(C/[N+]([O-])=N/O)C(=O)O (stereo unspecified) was run?
The T/C was 127 % of control.

What about the T/C (dose: 8.64 mg/kg/injection, schedule: Q01DX009 (ip), vehicle: alkali diluted with saline) of the same compound?
Its T/C is 126 % of control.

What about the T/C (dose: 9.38 mg/kg/injection, schedule: Q01DX009 (ip), vehicle: alkali diluted with water) of the same compound?
Its T/C is 128 % of control.

And the T/C (dose: 10.0 mg/kg/injection, schedule: Q01DX009 (ip), vehicle: alkali diluted with saline)?
Its T/C is 140 % of control.

And the T/C (dose: 14.4 mg/kg/injection, schedule: Q01DX009 (ip), vehicle: alkali diluted with saline)?
Its T/C is 135 % of control.

And the T/C (dose: 15.0 mg/kg/injection, schedule: Q01DX005 (ip), vehicle: alkali diluted with saline)?
The T/C was 138 % of control.

And the T/C (dose: 15.6 mg/kg/injection, schedule: Q01DX009 (ip), vehicle: saline)?
The T/C was 131 % of control.

What about the T/C (dose: 15.6 mg/kg/injection, schedule: Q01DX009 (ip), vehicle: water) of the same compound?
The T/C was 140 % of control.

What about the T/C (dose: 16.2 mg/kg/injection, schedule: Q01DX009 (ip), vehicle: alkali diluted with saline) of the same compound?
The T/C was 130 and 138 % of control.

What about the T/C (dose: 18.75 mg/kg/injection, schedule: Q01DX009 (ip), vehicle: alkali diluted with saline) of the same compound?
Its T/C is 146 % of control.

What about the T/C (dose: 18.75 mg/kg/injection, schedule: Q01DX009 (ip), vehicle: alkali diluted with water) of the same compound?
The T/C was 142 % of control.

And the T/C (dose: 18.8 mg/kg/injection, schedule: Q01DX009 (ip), vehicle: alkali diluted with saline)?
Its T/C is 149 % of control.

And the T/C (dose: 19.8 mg/kg/injection, schedule: Q01DX010 (ip), vehicle: alkali diluted with saline)?
The T/C was 126 % of control.

And the T/C (dose: 20.0 mg/kg/injection, schedule: Q01DX005 (ip), vehicle: alkali diluted with saline)?
Its T/C is 133 % of control.

And the T/C (dose: 20.0 mg/kg/injection, schedule: Q01DX009 (ip), vehicle: alkali diluted with saline)?
The T/C was 141 % of control.

What about the T/C (dose: 24.0 mg/kg/injection, schedule: Q01DX009 (ip), vehicle: alkali diluted with saline) of the same compound?
The T/C was 137 % of control [7 of 8 alive].

And the T/C (dose: 27.0 mg/kg/injection, schedule: Q01DX009 (ip), vehicle: alkali diluted with saline)?
Its T/C is 144 % of control.

What about the T/C (dose: 28.13 mg/kg/injection, schedule: Q04DX003 (ip), vehicle: alkali diluted with saline) of the same compound?
The T/C was 129 % of control [7 of 8 alive].

And the T/C (dose: 29.6 mg/kg/injection, schedule: Q01DX010 (ip), vehicle: alkali diluted with saline)?
The T/C was 141 % of control.

And the T/C (dose: 30.0 mg/kg/injection, schedule: Q01DX009 (ip), vehicle: Klucel (hydroxypropylcellulose) (HPC))?
The T/C was 137 % of control.

And the T/C (dose: 31.3 mg/kg/injection, schedule: Q01DX005 (ip), vehicle: saline with Tween-80)?
Its T/C is 128 % of control.

What about the T/C (dose: 31.3 mg/kg/injection, schedule: Q01DX009 (ip), vehicle: saline) of the same compound?
The T/C was 136 % of control.

And the T/C (dose: 31.3 mg/kg/injection, schedule: Q01DX009 (ip), vehicle: water)?
The T/C was 145 % of control.

And the T/C (dose: 37.5 mg/kg/injection, schedule: Q01DX009 (ip), vehicle: alkali diluted with water)?
Its T/C is 148 % of control.

And the T/C (dose: 40.0 mg/kg/injection, schedule: Q01DX009 (ip), vehicle: Klucel (hydroxypropylcellulose) (HPC))?
The T/C was 142 % of control.

What about the T/C (dose: 40.0 mg/kg/injection, schedule: Q01DX009 (ip), vehicle: alkali diluted with saline) of the same compound?
Its T/C is 147 % of control.

And the T/C (dose: 44.4 mg/kg/injection, schedule: Q01DX010 (ip), vehicle: alkali diluted with saline)?
The T/C was 142 % of control.

And the T/C (dose: 50.0 mg/kg/injection, schedule: Q01DX009 (ip), vehicle: Klucel (hydroxypropylcellulose) (HPC))?
Its T/C is 142 % of control.

What about the T/C (dose: 50.0 mg/kg/injection, schedule: Q04DX003 (ip), vehicle: alkali diluted with saline, evaluated on day 30) of the same compound?
Its T/C is 137 and 142 % of control.

And the T/C (dose: 50.0 mg/kg/injection, schedule: Q04DX003 (ip), vehicle: alkali diluted with saline, evaluated on day 45)?
The T/C was 148 % of control.

What about the T/C (dose: 50.0 mg/kg/injection, schedule: Q04DX003 (ip), vehicle: alkali diluted with water) of the same compound?
The T/C was 140 % of control.

And the T/C (dose: 56.25 mg/kg/injection, schedule: Q04DX003 (ip), vehicle: alkali diluted with saline)?
The T/C was 143 % of control.

What about the T/C (dose: 62.5 mg/kg/injection, schedule: Q01DX005 (ip), vehicle: saline with Tween-80) of the same compound?
The T/C was 130 % of control.

What about the T/C (dose: 64.8 mg/kg/injection, schedule: Q04DX003 (ip), vehicle: alkali diluted with saline) of the same compound?
The T/C was 146 % of control.

What about the T/C (dose: 66.7 mg/kg/injection, schedule: Q01DX010 (ip), vehicle: alkali diluted with saline) of the same compound?
The T/C was 135 % of control.

What about the T/C (dose: 75.0 mg/kg/injection, schedule: Q01DX009 (ip), vehicle: alkali diluted with saline, evaluated on day 5) of the same compound?
The T/C was 90 and 190 % of control.

And the T/C (dose: 75.0 mg/kg/injection, schedule: Q01DX009 (ip), vehicle: alkali diluted with saline, evaluated on day 30)?
The T/C was 97 and 178 % of control.

What about the T/C (dose: 100.0 mg/kg/injection, schedule: Q04DX003 (ip), vehicle: alkali diluted with saline, evaluated on day 30) of the same compound?
The T/C was 140, 148, 152 % of control.

What about the T/C (dose: 100.0 mg/kg/injection, schedule: Q04DX003 (ip), vehicle: alkali diluted with saline, evaluated on day 45) of the same compound?
The T/C was 151 % of control.

What about the T/C (dose: 100.0 mg/kg/injection, schedule: Q04DX003 (ip), vehicle: alkali diluted with water) of the same compound?
The T/C was 140 % of control.

And the survivor count (dose: 125.0 mg/kg/injection, schedule: Q01DX009 (ip), vehicle: water)?
The survivor count was 10 of 10.

What about the survivor count (dose: 150.0 mg/kg/injection, schedule: Q01DX009 (ip), vehicle: alkali diluted with saline) of the same compound?
The survivor count was 6 of 6 and 8 of 8.

And the T/C (dose: 200.0 mg/kg/injection, schedule: Q04DX003 (ip), vehicle: alkali diluted with saline, evaluated on day 30)?
Its T/C is 155, 168, 169 % of control.

What about the T/C (dose: 200.0 mg/kg/injection, schedule: Q04DX003 (ip), vehicle: alkali diluted with saline, evaluated on day 45) of the same compound?
Its T/C is 187 % of control.

And the survivor count (dose: 250.0 mg/kg/injection, schedule: Q01DX009 (ip), vehicle: saline)?
The survivor count was 10 of 10.

What about the survivor count (dose: 250.0 mg/kg/injection, schedule: Q01DX009 (ip), vehicle: water) of the same compound?
The survivor count was 9 of 10.

What about the T/C (dose: 400.0 mg/kg/injection, schedule: Q04DX003 (ip), vehicle: alkali diluted with saline, evaluated on day 30) of the same compound?
Its T/C is 175, 180 [6 of 8 alive], 199 % of control.

What about the T/C (dose: 400.0 mg/kg/injection, schedule: Q04DX003 (ip), vehicle: alkali diluted with saline, evaluated on day 45) of the same compound?
The T/C was 200 % of control.

And the T/C (dose: 400.0 mg/kg/injection, schedule: Q04DX003 (ip), vehicle: alkali diluted with water)?
Its T/C is 131 % of control.

And the survivor count (dose: 500.0 mg/kg/injection, schedule: Q01DX009 (ip), vehicle: saline)?
The survivor count was 5 of 10.

What about the survivor count (dose: 500.0 mg/kg/injection, schedule: Q01DX009 (ip), vehicle: water) of the same compound?
The survivor count was 10 of 10.

And the T/C (dose: 800.0 mg/kg/injection, schedule: Q04DX003 (ip), vehicle: alkali diluted with saline, evaluated on day 30)?
The T/C was 120 % of control.

And the T/C (dose: 800.0 mg/kg/injection, schedule: Q04DX003 (ip), vehicle: alkali diluted with saline, evaluated on day 45)?
The T/C was 131 % of control.

And the survivor count (dose: 800.0 mg/kg/injection, schedule: Q04DX003 (ip), vehicle: alkali diluted with saline)?
Its survivor count is 6 of 8 and 6 of 6.

With CN(C)CCN1c2ccccc2Oc2ccccc21 as the compound, how does the survivor count (dose: 200.0 mg/kg/injection, schedule: Q01DX005 (ip), vehicle: saline) read?
Its survivor count is 2 of 5.

With O=S1(=O)CCC2CCCCC2C1 (stereo unspecified) as the compound, how does the survivor count (dose: 25.0 mg/kg/injection, schedule: Q01DX009 (ip), vehicle: saline with Tween-80) read?
The survivor count was 3 of 6.

C/C(=C\C(=O)c1ccccc1)Nc1ccccc1Cl was tested. Which survivor count (dose: 100.0 mg/kg/injection, schedule: Q01DX009 (ip), vehicle: saline) did it give?
Its survivor count is 6 of 6.

CC1(C)OC(=O)C(=CN(C2CCCCC2)C2CCCCC2)C(=O)O1 was tested. Which survivor count (dose: 240.0 mg/kg/injection, schedule: Q01DX005 (ip), vehicle: Klucel (hydroxypropylcellulose) (HPC)) did it give?
The survivor count was 6 of 6.

Nc1cc2nnc(-c3ccccc3)c(-c3ccccc3)n2n1 was tested. Which survivor count (dose: 100.0 mg/kg/injection, schedule: Q04DX002 (ip), vehicle: saline with Tween-80) did it give?
Its survivor count is 6 of 6.

How did the survivor count (dose: 100.0 mg/kg/injection, schedule: Q01DX009 (ip), vehicle: saline with Tween-80) turn out when OC(c1cc(-c2ccccc2)nc2c(Cl)cc(Cl)cc12)C1CCCCN1 (stereo unspecified) was run?
Its survivor count is 6 of 6.

What about the survivor count (dose: 200.0 mg/kg/injection, schedule: Q01DX009 (ip), vehicle: saline with Tween-80) of the same compound?
The survivor count was 5 of 6.

How did the survivor count (dose: 400.0 mg/kg/injection, schedule: Q01DX009 (ip), vehicle: saline with Tween-80) turn out when CCOC(=S)NC(=O)c1ccccc1 was run?
Its survivor count is 3 of 6.

c1ccc(C2=NNC(c3ccccn3)=C3CCCCCCC3=N2)nc1 was tested. Which T/C (dose: 12.5 mg/kg/injection, schedule: Q01DX009 (ip), vehicle: water) did it give?
The T/C was 125 % of control.

What about the survivor count (dose: 100.0 mg/kg/injection, schedule: Q01DX009 (ip), vehicle: water) of the same compound?
Its survivor count is 5 of 6.

What about the survivor count (dose: 200.0 mg/kg/injection, schedule: Q01DX009 (ip), vehicle: water) of the same compound?
The survivor count was 0 of 6.

With C=CC(C)NC(=S)NNC(=S)NC (stereo unspecified) as the compound, how does the survivor count (dose: 400.0 mg/kg/injection, schedule: Q01DX005 (ip), vehicle: Klucel (hydroxypropylcellulose) (HPC)) read?
Its survivor count is 0 of 5.
